# According to PubChem BioAssay AID493014 (National Center for Advancing Translational Sciences (NCATS), 2011):
# The list shows a part of the results. These are further read-outs of the screen, such as a control signal, another cell line or another target. No call is given for them. The list favours compounds with an active or inconclusive main result. The note in brackets gives the kind of curve behind each potency; many fits are weak.
# Assay: qHTS Assay to Find Inhibitors of Chronic Active B-Cell Receptor Signaling
# Details: ABC-DLBCL IkBa-CBG/CBR reporter, luminescence ratio (green luciferase fused to IkBa over red control in TMD8 lymphoma cells), 4 h
# Procedure, shortened: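 Concentration-response series (up to 46 uM) were applied to TMD8 dual-reporter cells for 4 h at 37C with doxycycline. Green/red ratio, after filter-overlap correction, defined %Activity; red signal alone was normalised to basal cells and zero luminescence.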
# [1] = measured here: CBR red luminescence, cell number
# [2] = measured here: IkBa-CBG green luminescence
Compound,AC50 [1],AC50 [2]
CCN(CC)S(=O)(=O)c1ccc(Cl)c(OC)c1,"8.2 µM [rising, partial curve]",–
O=C(Nc1ccc(Cl)c(Cl)c1)Nc1nnc(CC2=CCCCC2)s1,"29.1 µM [rising, single point]",–
Cc1ccc(C(=O)N/N=C\c2ccc[nH]2)cn1,"16.4 µM [falling, partial curve, poor fit]",–
O=C(Cn1c(=O)c2c3c(sc2n(Cc2ccccc2)c1=O)CCCC3)NCCO,"0.501 µM [rising, full curve, poor fit]",–
Cc1ccc(N2N=C(c3ccc(Br)cc3)CCC2=O)cc1,"14.6 µM [rising, partial curve]",–
CC1=C(C(=O)OC(C)C)C(C2CC=CCC2)NC(=O)N1 (stereo unspecified),"20.6 µM [falling, single point]",–
COc1ccc(N(CC(=O)Nc2ccccc2C(=O)O)S(=O)(=O)c2ccc(C)c([N+](=O)[O-])c2)cc1,"17.8 µM [rising, partial curve, poor fit]",–
CCOc1cc(/C=N\NC(=O)c2c(C)nc3ccccn23)ccc1O,"35.5 µM [falling, single point]",–
CCCOC(=O)CC1C(=O)NCCN1Cc1ccc(F)cc1 (stereo unspecified),"2.06 µM [falling, partial curve, poor fit]",–
Cc1[nH]nc(N=CC2=C(O)CC(c3ccco3)CC2=O)c1-c1ccc(Cl)cc1 (stereo unspecified),"0.731 µM [falling, full curve, poor fit]",–
CC(C)(C)n1nc2c(c1NC(=O)COc1ccc(Cl)cc1)CSC2,"2.51 µM [rising, partial curve, poor fit]",–
O=C(N/N=C/C1CC2CCC1C2)c1ccc2c(c1)OCO2 (stereo unspecified),"9.2 µM [falling, partial curve]",–
CC(C)OC(=O)C1=C(N)N2C(=O)CSC2=C(C(=O)OC(C)C)C1,"15.8 µM [falling, partial curve, poor fit]",–
COc1ccc(CCNC(=O)C2CCCN2S(=O)(=O)c2ccc(F)cc2)cc1OC (stereo unspecified),"10 µM [rising, partial curve, poor fit]",–
Cc1ccc(NC(=S)N(CCN2CCOCC2)Cc2cc3cc4c(cc3[nH]c2=O)OCO4)cc1,"3.16 µM [rising, full curve, poor fit]",–
CCN(CC)S(=O)(=O)c1cc(NC(=O)c2ccc(Br)s2)ccc1C,"4.47 µM [falling, full curve]",–
COc1ccc2c(c1)c1ncn(CCc3ccccc3)c(=O)c1n2C,"16.4 µM [falling, single point]",–
Cc1nc(C)n(C(C)CNS(=O)(=O)c2ccc(C)c(C)c2)n1 (stereo unspecified),"35.5 µM [falling, single point]",–
Cn1c2ccccc2c2cc(/C=N/NC(=O)c3cc(O)cc(O)c3)ccc21,"25.1 µM [falling, single point]",–
CCOc1ccccc1NC(=S)NC(=O)CCCOc1ccc(Cl)cc1Cl,"29.1 µM [rising, single point]",–
CCc1ccc(NC(=O)CSc2nnc(CC)c(CC)n2)cc1,"23.1 µM [rising, single point]",–

# Entries above with a thiophene ring, fused or not (two):
Compound,AC50 [1],AC50 [2]
O=C(Cn1c(=O)c2c3c(sc2n(Cc2ccccc2)c1=O)CCCC3)NCCO,"0.501 µM [rising, full curve, poor fit]",–
CCN(CC)S(=O)(=O)c1cc(NC(=O)c2ccc(Br)s2)ccc1C,"4.47 µM [falling, full curve]",–

# More results.

Compound,AC50 [1],AC50 [2]
O=C(CN1C(=O)S/C(=C\c2ccc(F)cc2)C1=O)Nc1cccc(S(=O)(=O)NCc2ccco2)c1,"1.26 µM [falling, partial curve, poor fit]",–
C=CCn1c(SCc2csc(C)n2)nc2sc3c(c2c1=O)CCCC3,"0.461 µM [rising, full curve, poor fit]",–
COc1cc(/C=C/c2ccc3cccc(OC)c3n2)c(OC(C)=O)c([N+](=O)[O-])c1,"5.8 µM [falling, partial curve]",–
CCn1c(SCC(=O)Nc2ccc(N3CCOCC3)cc2)nnc1-c1ccc(OC)cc1,"4.11 µM [falling, partial curve, poor fit]",–
O=C(CNC(=O)C1COc2ccccc2O1)Nc1cc(Cl)ccc1Cl (stereo unspecified),"2.91 µM [falling, full curve]",–
CC(C)c1[nH]nc2c1C(c1ccc(OC(=O)c3ccco3)cc1)C(C#N)=C(N)O2 (stereo unspecified),"14.6 µM [falling, partial curve]",–
CCOc1ccc(CN(C)C(=O)Cc2c[nH]c3ccccc23)cc1,"6.31 µM [rising, single point]",–
CC1=CC2=NC(=O)/C(=C\c3cccn3CCOc3ccccc3)C(=N)N2O1,"23.1 µM [falling, single point]",–
COc1ccc2oc(=Nc3cc(F)ccc3F)c(C(N)=O)cc2c1,"0.1 µM [rising, full curve, poor fit]",–
Cc1c(Cc2ccccc2)sc(/N=C/c2ccc3ccccc3c2)c1C(N)=O,"23.1 µM [rising, single point]",–
Cc1ccc(NC(=O)C(C)S)cc1 (stereo unspecified),"10 µM [falling, partial curve]",–
COc1ccc(CSc2ncnc3sccc23)cc1F,"35.5 µM [rising, single point]",–
ClCc1nc2ccccc2c2ccccc12,"7.94 µM [rising, partial curve, poor fit]","8.91 µM [falling, partial curve]"
O=C(N/N=C/c1cc(Cl)c(O)c(Cl)c1)c1cc2c(ccc3ccccc32)o1,"35.5 µM [falling, single point]",–
Cc1cc(=O)n(CC(=O)Nc2ccc(Cl)c(Cl)c2)c(-n2nc(C)cc2C)n1,"35.5 µM [falling, partial curve, poor fit]","28.2 µM [rising, partial curve, poor fit]"
COc1ccc(Cl)cc1NC(=O)COC(=O)/C=C/c1c(C)nn(C2CCS(=O)(=O)C2)c1Cl (stereo unspecified),"15.8 µM [falling, single point]",–
Brc1ccc(-c2nn3c(-c4ccccn4)nnc3s2)o1,"7.31 µM [falling, partial curve, poor fit]",–
COc1ccc(NC(=O)c2oc3ccccc3c2NC(=O)C2CC2)cc1,"0.251 µM [falling, full curve, poor fit]",–
O=C(CCCCCn1c(=S)[nH]c2ccc(N3CCOCC3)cc2c1=O)NC1CCN(Cc2ccccc2)CC1,"2.82 µM [falling, full curve]",–
COc1ccc(/C=C2\Sc3ccc(C(=O)N4CCN(Cc5ccccc5)CC4)cc3N(C)C2=O)cc1OC,"35.5 µM [falling, single point]",–
COc1cc(NC(=O)Cc2ccccc2)nc(OC)n1,"2.24 µM [rising, partial curve, poor fit]",–

Compound,AC50 [1],AC50 [2]
COc1ccc(NC(=O)c2sc(SC)nc2N)cc1,"20 µM [falling, single point]",–
CC1CCc2c(C(=O)Nc3cccc(-c4nn[nH]n4)c3)csc2C1 (stereo unspecified),"14.1 µM [falling, single point]",–
CCOC(=O)c1c(N/N=C/c2ccncc2)n[nH]c1C,–,"20.6 µM [rising, partial curve, poor fit]"
CCN(CC)CC(=O)Nc1c(Br)ccc2c1OCO2,"11.2 µM [falling, partial curve]",–
O=C(Cc1n[nH]c(=O)c2ccccc12)Nc1cccc(S(=O)(=O)N2CCCCCC2)c1,"10.3 µM [falling, partial curve, poor fit]",–
COc1cc2cc(C(c3nnnn3C(C)(C)C)N3CCC(C)CC3)c(=O)[nH]c2cc1OC (stereo unspecified),"29.1 µM [falling, single point]",–
Cc1ccc(-n2ncc3c(NCCCN(C)C)ncnc32)cc1Cl,"5.01 µM [falling, full curve, poor fit]",–
O=C(/C=C/c1ccco1)NC(=S)Nc1ccccc1N1CCCC1,"35.5 µM [falling, single point]",–
CC(C)CNC(=O)CCc1nc(-c2ccccc2)no1,"35.5 µM [rising, single point]",–
COc1ccc(C2Sc3nncn3N2Cc2ccc(C#N)cc2)cc1 (stereo unspecified),"11.2 µM [falling, partial curve, poor fit]",–
Cc1ccc2[nH]c(=O)c(CN(CCCO)C(C)c3nnnn3Cc3ccco3)cc2c1 (stereo unspecified),"35.5 µM [falling, single point]",–
O=[N+]([O-])c1ccc(N2CCN(c3cccc(Cl)c3)CC2)cn1,"0.0891 µM [falling, full curve, poor fit]",–
CCOC(=O)c1c(N)sc(=S)c2c1CCC2,"3.55 µM [falling, full curve, poor fit]",–
Cn1c(-c2ccccc2)cnc1NCc1ccccc1,"17.8 µM [falling, single point]",–
N=C1C(c2nc3ccccc3s2)=C(O)CN1NC(=O)c1ccco1,"5.62 µM [rising, partial curve, poor fit]",–
CC(=O)Nc1ccc(C(=O)OCC(=O)N(c2ccccc2)C2CCCCC2)cc1,"25.9 µM [falling, single point]",–
Oc1ccccc1-n1c(-c2ccccc2)ccc1-c1ccccc1,"4.47 µM [rising, full curve, poor fit]","35.5 µM [falling, partial curve, poor fit]"
Cc1cc(C(=O)NNC(=O)c2cccc(C(F)(F)F)c2)no1,"35.5 µM [falling, single point]",–
COc1ccc(C(=O)Nc2cccc(C(=O)N3CCCCC3)c2)cc1,"5.01 µM [falling, partial curve, poor fit]",–
COCCn1c(SCc2cccnc2)nnc1-c1ccco1,"0.461 µM [falling, partial curve, poor fit]",–
NS(=O)(=O)c1ccc2c(c1)C1C=CCC1C(C1CC=CCC1)N2 (stereo unspecified),"3.26 µM [rising, partial curve, poor fit]",–
